## Library screen at single concentrations

Measurements from “University of Dundee, Small-Polar-MMV Screening Library” (2021), ChEMBL document CHEMBL3988442.

Mtb cholesterol medium: 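Phenotypic screen: M. tuberculosis growth, cholesterol and DPPC medium, 4 days; the read-out is not stated. Tested at 50 µM. The record gives no direction; compounds that gave an IC50 in retests scored well above the rest, so higher reads as more growth inhibition. Size under these conditions: about 69,000 compounds, about 370 of them at 50% or above in at least one test.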
Mtb glucose medium: 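Phenotypic screen: M. tuberculosis growth, glucose 7H9 medium, 3 days; the read-out is not stated. Compounds at 50 µM. Higher reads as more growth inhibition (inferred: compounds with an IC50 in retests scored well above the rest). Of about 69,000 compounds tested this way, about 760 (1.1%) reached 50% or more in at least one test.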

Each number is a percent effect as filed.
The controls that fix the scale are not given in the record; negative values are as filed.
Compounds were drawn at random from those tested, without regard to their results.
Two or more numbers in one place are separate tests of the same structure; such repeats can differ widely.

| SMILES | Mtb cholesterol medium | Mtb glucose medium |
|---|---|---|
| `c1ccc(-c2noc(C3CCN(CCn4cccn4)CC3)n2)cc1` | 12.51 | 5.619 |
| `O=C(O)C(F)(F)F.O=C(O)C(F)(F)F.[H][C@]12CCC[C@@]1(COCc1csc(C)n1)CN(Cc1cccc(C)n1)C2` | 2.465 | 29.78 |
| `COc1cccc(-c2nc(C)c(C(=O)NC(CO)CCSC)s2)c1` (stereo not shown) | 15.19 | 8.136 |
| `Cc1ccc(S(=O)(=O)N[C@H](CO)C(C)C)cc1N(C)C` | -4.48 | -3.434 |
| `CC(O)c1cn(CC2CCN(C(=O)CN3CCCC3=O)CC2)nn1` (stereo not shown) | 11.7 | 5.913 and 7.662 |
| `CC(C)CN1CCN(C(=O)NCc2cccnc2-n2cccn2)CC1` | -26.9 | -10.33 |
| `O=C(O)C(F)(F)F.[H][C@@]12CCCO[C@]1([H])[C@H](OCC1CCOCC1)CN2c1ncc(F)cn1` | -4.143 | 9.108 |
| `CCc1ccc(CN2CCC(CNC(=O)c3ccc(C)nc3)C2)nc1` (stereo not shown) | -16.11 and -5.245 | -23.12 |
| `C/C=C(\C)CN1C[C@H](NC(=O)CCOC)[C@@H](c2ccc(C)o2)C1` | 3.459 | -1.798 |
| `CC(C)(CNc1cccc(Cl)c1)NC(=O)C1CCCN(CC(N)=O)C1` (stereo not shown) | 15.37 | 28.94 |
| `O=C(O)C(F)(F)F.[H][C@]12CCC[C@@]1(COc1ccccn1)CN(C(=O)N(C)C)C2` | -11.64 | 3.966 |
| `Cc1ccc(CN2Cc3cnn(C)c3C(COCC3CC3)C2)o1` (stereo not shown) | -9.57 | 7.026 |
| `COCc1cc(CC2(NCc3ccccc3Cl)COC2)no1` | -28.26 | 6.356 and -27.23 |
| `CN(Cc1ccc(F)cc1)CC1(O)CCCN(CC(C)(C)C)C1=O` (stereo not shown) | -9.488 | 4.626 and 0.485 |
| `COc1cccc(C2CC(=O)Nc3c2c(=O)n(C)c2ncnn32)c1` (stereo not shown) | -14.94 | -8.661 |
| `Cc1ccc(CNC(=O)N2CCN(Cc3ccsc3)CC2)n1C` | -11.66 | -10.81 |
| `Cn1c2c(ccc1=O)CC(NS(C)(=O)=O)CC2` (stereo not shown) | -13.31 | -19.71 |
| `CC(=O)NCC1CCN(C(=O)NCCc2ccc3c(c2)OCO3)CC1` | -0.8414 | -3.741 and 8.924 |
| `COCCN1CCCC(O)(CN2CCN(c3ccncc3C)CC2)C1=O` (stereo not shown) | 8.325 | 21.37 |
| `[H][C@@]12CCN(C(=O)c3cccnc3OC)C[C@@]1([H])O[C@@H](c1ccncn1)C2` | -0.1141 | 20.09 |
| `CC1CCCN(CCCNC(=O)c2cn(C)nc2-c2cccnc2)C1` (stereo not shown) | -0.7346 | 1.224 and 2.435 |
| `Cc1occc1C(=O)N1CCC2(CC1)CC(OCc1ccccn1)CO2.O=C(O)C(F)(F)F` (stereo not shown) | -3.007 and -5.389 | -32.22 |
| `O=C(O)C(F)(F)F.O=C(O)C(F)(F)F.[H][C@@]12CCN(Cc3cnn(C)c3)C[C@]1([H])[C@@H](CNc1ncccn1)OC2` | -12.79 | -29.63 |
| `CSCC(C)(O)CNC(=O)c1cc(F)ccc1Br` (stereo not shown) | -9.073 | 12.95 |
| `CCN(CC)C(CNC(=O)c1ccc(S(=O)(=O)NC)cc1)c1ccco1` (stereo not shown) | -20.36 | -35.62 |
| `Cc1cc(C(=O)NCCSC2CCCC2)no1` | -2.32 | -17.43 |
| `O=C1CCCCCN1Cc1cccc(OC(F)F)c1` | -18.06 | -32.34 |
| `Cc1nc2ccc(S(=O)(=O)Nc3c(C)nn(CC(=O)O)c3C)cc2s1` | -10.28 | -7.32 |
| `CC(C)c1nnc2n1CCN(C(=O)c1ccc(S(C)(=O)=O)cc1)C2` | 6.637 | 2.803 |
| `CCc1ccc(C(=O)NCCCC2(C3OCCO3)CCOCC2)cc1` | -1.04 | 4.086 and 29.47 |
| `Nc1ccnn1C1CCN(Cc2ccccc2)C1` (stereo not shown) | -4.412 | 12.26 |
| `CC(C#N)CSc1ccccc1NCC(=O)NC(=O)NC(C)(C)C` (stereo not shown) | 11.88 | 4.83 and -16.82 |
| `CCCc1cc(=O)[nH]c2nnc(SCC(=O)NC(C)(C)C)n12` | 6.16 | -17.07 |
| `COc1ccc(NC(=O)CCc2c(C)nc3cc(O)nn3c2C)cn1` | 4.736 | -16.71 |
| `COc1nc2c(cc1C(=O)N1CCCOC(CN3CCCC3)C1)CCC2` (stereo not shown) | 1.537 | -2.419 |
| `COc1ccc(-c2nccc(C3CCCN3C)n2)cc1` (stereo not shown) | 9.323 | 43.2 |
| `O=C(O)C(F)(F)F.[H][C@]12CCC(=O)N(c3ccccc3)[C@@]1([H])CCN2c1ncc(CC)cn1` | -17.75 | -70.99 |
| `Nc1nc(CCC(=O)N2CCOC(CC3CCCCC3)C2)cs1` (stereo not shown) | 5.094 | 6.902 |
| `CC(=O)N1CC2(CCN(C(=O)c3cccc4[nH]ccc34)CC2)C1` | -2.615 | -2.125 |
| `Cc1nc(CN(C)C(=O)c2cccc(CC3CCNCC3)c2)no1` | -11.63 | -37.49 and -10.13 |
| `CN1CCN(CC(C)(C)C)CC1CCO` (stereo not shown) | 3.526 | -4.189 |
| `CN(C)Cc1cc(=O)n2c(n1)CN(C(=O)c1ccc[nH]1)CCC2.O=C(O)C(F)(F)F` | -31.72 | -6.34 |

5 of the entries, repeated:

SMILES,Mtb cholesterol medium,Mtb glucose medium
O=C(O)C(F)(F)F.O=C(O)C(F)(F)F.[H][C@]12CCC[C@@]1(COCc1csc(C)n1)CN(Cc1cccc(C)n1)C2,2.465,29.78
CCCc1cc(=O)[nH]c2nnc(SCC(=O)NC(C)(C)C)n12,6.16,-17.07
CC(C)c1nnc2n1CCN(C(=O)c1ccc(S(C)(=O)=O)cc1)C2,6.637,2.803
Cn1c2c(ccc1=O)CC(NS(C)(=O)=O)CC2 (stereo not shown),-13.31,-19.71
COCCN1CCCC(O)(CN2CCN(c3ccncc3C)CC2)C1=O (stereo not shown),8.325,21.37